# Reference: the supplement of paper PMC8728848
# This is one part of the list.
# B1: DCIR1 (Mus musculus), Q9QZ15 (protein)
# chain: MASEITYAEVKFKNESNSLHTYSESPAAPREKPIRDLRKPGSPSLLLTSLMLLLLLLAITFLVAFIIYFQKYSQLLEEKKAAKNIMHNELNCTKSVSPMEDKVWSCCPKDWRLFGSHCYLVPTVSSSASWNKSEENCSRMGAHLVVIQSQEEQDFITGILDTHAAYFIGLWDTGHRQWQWVDQTPYEESITFWHNGEPSSGNEKCATIIYRWKTGWGWNDISCSLKQKSVCQMKKINL
# How the values were obtained:
# Test in all cases: glycan array binding signal (z-score within array); higher = stronger binding
# Settings in all cases: glycan notation: IUPAC condensed, linker removed
# [1] = target: Fuc(a1-2)Gal
# In short: (§1)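 Glycan array binding is given as a within-array Z-score, which can be read as non-binding when negative. The arrays, 3228 of them, came from the Consortium for Functional Glycomics database and were retained only where the protein sequence was available. Z-scores were averaged across arrays of the same protein sequence at different concentrations or buffers and across linkers.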
# [2] = target: Fuc(a1-2)Gal(b1-3)GalNAc
# In short: as §1
# [3] = target: Fuc(a1-2)Gal(b1-3)GalNAc(a1-3)[Fuc(a1-2)]Gal(b1-4)Glc
# In short: as §1
# [4] = target: Fuc(a1-2)Gal(b1-3)GalNAc(a1-3)[Fuc(a1-2)]Gal(b1-4)GlcNAc
# In short: as §1
# [5] = target: Fuc(a1-2)Gal(b1-3)GalNAc(b1-3)Gal
# In short: as §1
# [6] = target: Fuc(a1-2)Gal(b1-3)GalNAc(b1-3)Gal(a1-4)Gal(b1-4)Glc
# In short: as §1
# [7] = target: Fuc(a1-2)Gal(b1-3)GalNAc(b1-4)[Neu5Ac(a2-3)]Gal(b1-4)Glc
# In short: as §1
# [8] = target: Fuc(a1-2)Gal(b1-3)GlcNAc
# In short: as §1
# [9] = target: Fuc(a1-2)Gal(b1-3)GlcNAc(b1-2)Man(a1-3)[Fuc(a1-2)Gal(b1-3)GlcNAc(b1-2)Man(a1-6)]Man(b1-4)GlcNAc(b1-4)GlcNAc
# In short: as §1
# [10] = target: Fuc(a1-2)Gal(b1-3)GlcNAc(b1-2)Man(a1-3)[Fuc(a1-2)Gal(b1-3)GlcNAc(b1-2)Man(a1-6)]Man(b1-4)GlcNAc(b1-4)[Fuc(a1-6)]GlcNAc
# In short: as §1
# [11] = target: Fuc(a1-2)Gal(b1-3)GlcNAc(b1-3)Gal(b1-4)Glc
# In short: as §1
# [12] = target: Fuc(a1-2)Gal(b1-3)GlcNAc(b1-3)GalNAc
# In short: as §1
# [13] = target: Fuc(a1-2)Gal(b1-3)GlcNAc(b1-3)[Fuc(a1-2)Gal(b1-3)GlcNAc(b1-6)]GalNAc
# In short: as §1
# [14] = target: Fuc(a1-2)Gal(b1-3)GlcNAc(b1-3)[Gal(b1-4)GlcNAc(b1-6)]Gal(b1-4)Glc
# In short: as §1
# [15] = target: Fuc(a1-2)Gal(b1-3)GlcNAc(b1-3)[Neu5Ac(a2-6)Gal(b1-4)GlcNAc(b1-6)]Gal(b1-4)Glc
# In short: as §1
# [16] = target: Fuc(a1-2)Gal(b1-3)GlcNAc6S
# In short: as §1
# [17] = target: Fuc(a1-2)Gal(b1-3)[Fuc(a1-4)]GlcNAc
# In short: as §1
# [18] = target: Fuc(a1-2)Gal(b1-3)[Fuc(a1-4)]GlcNAc(b1-2)Man(a1-3)[Fuc(a1-2)Gal(b1-3)[Fuc(a1-4)]GlcNAc(b1-2)Man(a1-3)]Man(b1-4)GlcNAc(b1-4)GlcNAc
# In short: as §1
# [19] = target: Fuc(a1-2)Gal(b1-3)[Fuc(a1-4)]GlcNAc(b1-2)Man(a1-3)[Fuc(a1-2)Gal(b1-3)[Fuc(a1-4)]GlcNAc(b1-2)Man(a1-6)]Man(b1-4)GlcNAc(b1-4)[Fuc(a1-6)]GlcNAc(b1-4)[Fuc(a1-6)]GlcNAc
# In short: as §1
# [20] = target: Fuc(a1-2)Gal(b1-3)[Fuc(a1-4)]GlcNAc(b1-3)[Fuc(a1-3)[Gal(b1-4)]GlcNAc(b1-6)]Gal(b1-4)Glc
# In short: as §1
# [21] = target: Fuc(a1-2)Gal(b1-3)[Fuc(a1-4)]GlcNAc(b1-3)[Gal(b1-4)GlcNAc(b1-6)]Gal(b1-4)Glc
# In short: as §1
# [22] = target: Fuc(a1-2)Gal(b1-4)Fuc(a1-3)]GlcNAc(b1-2)Man(a1-3)[Fuc(a1-2)Gal(b1-4)[Fuc(a1-3)]GlcNAc(b1-2)Man(a1-6)]Man(b1-4)GlcNAc(b1-4)GlcNAc
# In short: as §1
# [23] = target: Fuc(a1-2)Gal(b1-4)Glc
# In short: as §1
# [24] = target: Fuc(a1-2)Gal(b1-4)Glc6S
# In short: as §1
# [25] = target: Fuc(a1-2)Gal(b1-4)GlcNAc
# In short: as §1
# [26] = target: Fuc(a1-2)Gal(b1-4)GlcNAc(b1-2)Man
# In short: as §1
# [27] = target: Fuc(a1-2)Gal(b1-4)GlcNAc(b1-2)Man(a1-3)[Fuc(a1-2)Gal(b1-4)GlcNAc(b1-2)Man(a1-6)]Man(b1-4)GlcNAc(b1-4)GlcNAc
# In short: as §1
# [28] = target: Fuc(a1-2)Gal(b1-4)GlcNAc(b1-2)Man(a1-3)[Fuc(a1-2)Gal(b1-4)GlcNAc(b1-2)Man(a1-6)]Man(b1-4)GlcNAc(b1-4)[Fuc(a1-6)]GlcNAc
# In short: as §1
# [29] = target: Fuc(a1-2)Gal(b1-4)GlcNAc(b1-2)[Fuc(a1-2)Gal(b1-4)GlcNAc(b1-4)]Man(a1-3)[Fuc(a1-2)Gal(b1-4)GlcNAc(b1-2)Man(a1-6)]Man(b1-4)GlcNAc(b1-4)GlcNAc
# In short: as §1
# [30] = target: Fuc(a1-2)Gal(b1-4)GlcNAc(b1-3)Gal(b1-4)GlcNAc
# In short: as §1
binder,measurement,setting,value
B1,glycan array binding signal (z-score),[1],0.989
same,glycan array binding signal (z-score),[2],0.068
same,glycan array binding signal (z-score),[3],-0.877
same,glycan array binding signal (z-score),[4],0.031
same,glycan array binding signal (z-score),[5],0.554
same,glycan array binding signal (z-score),[6],3.31
same,glycan array binding signal (z-score),[7],-0.522
same,glycan array binding signal (z-score),[8],-0.658
same,glycan array binding signal (z-score),[9],-0.098
same,glycan array binding signal (z-score),[10],3.05
same,glycan array binding signal (z-score),[11],0.276
same,glycan array binding signal (z-score),[12],-0.4
same,glycan array binding signal (z-score),[13],-0.166
same,glycan array binding signal (z-score),[14],0.466
same,glycan array binding signal (z-score),[15],-0.587
same,glycan array binding signal (z-score),[16],-0.691
same,glycan array binding signal (z-score),[17],-0.937
same,glycan array binding signal (z-score),[18],2.59
same,glycan array binding signal (z-score),[19],-0.6
same,glycan array binding signal (z-score),[20],0.269
same,glycan array binding signal (z-score),[21],-0.366
same,glycan array binding signal (z-score),[22],-0.118
same,glycan array binding signal (z-score),[23],0.783
same,glycan array binding signal (z-score),[24],0.633
same,glycan array binding signal (z-score),[25],-0.068
same,glycan array binding signal (z-score),[26],0.46
same,glycan array binding signal (z-score),[27],-0.079
same,glycan array binding signal (z-score),[28],0.922
same,glycan array binding signal (z-score),[29],0.538
same,glycan array binding signal (z-score),[30],-0.313

# Pulled one by one from above (two):
binder,measurement,setting,value
B1,glycan array binding signal (z-score),[15],-0.587
same,glycan array binding signal (z-score),[10],3.05
